For at least one compound, name, drawing or mass did not settle the structure.
Test system: CT26 tumor cells
Assay: Anti-tumor vaccination: treated dying CT26 cells injected s.c., challenge with live tumor cells in opposite flank
Type: in vivo
Conditions: CT26 cells treated in vitro with agent alone, immunocompetent BALB/c mice

With `C=C(C)[C@@H]1CC[C@]2(C(=O)O)CC[C@]3(C)[C@H](CC[C@@H]4[C@@]5(C)CC[C@H](O)C(C)(C)[C@@H]5CC[C@]43C)[C@@H]12` [betulinic acid] the “immunogenicity of cell death (protection against tumor growth on rechallenge)” value was “failed to induce immunogenic apoptosis”.

— US20090004211A1, “METHOD FOR EFFECTING LOCALIZED, NON-SYSTEMIC AND SYSTEMIC, IMMUNOGENIC TREATMENT OF CANCER USING ERP57 TRANSLOCATION” (priority 2006, published 2009)
